Test results from the supplement of paper PMC10849652.
The other results are listed elsewhere or left out.

Amino acid sequences for entries named in this document (tags omitted). A change or cut given only in a name is not applied to a line headed by its entry.
UniProt Q12913: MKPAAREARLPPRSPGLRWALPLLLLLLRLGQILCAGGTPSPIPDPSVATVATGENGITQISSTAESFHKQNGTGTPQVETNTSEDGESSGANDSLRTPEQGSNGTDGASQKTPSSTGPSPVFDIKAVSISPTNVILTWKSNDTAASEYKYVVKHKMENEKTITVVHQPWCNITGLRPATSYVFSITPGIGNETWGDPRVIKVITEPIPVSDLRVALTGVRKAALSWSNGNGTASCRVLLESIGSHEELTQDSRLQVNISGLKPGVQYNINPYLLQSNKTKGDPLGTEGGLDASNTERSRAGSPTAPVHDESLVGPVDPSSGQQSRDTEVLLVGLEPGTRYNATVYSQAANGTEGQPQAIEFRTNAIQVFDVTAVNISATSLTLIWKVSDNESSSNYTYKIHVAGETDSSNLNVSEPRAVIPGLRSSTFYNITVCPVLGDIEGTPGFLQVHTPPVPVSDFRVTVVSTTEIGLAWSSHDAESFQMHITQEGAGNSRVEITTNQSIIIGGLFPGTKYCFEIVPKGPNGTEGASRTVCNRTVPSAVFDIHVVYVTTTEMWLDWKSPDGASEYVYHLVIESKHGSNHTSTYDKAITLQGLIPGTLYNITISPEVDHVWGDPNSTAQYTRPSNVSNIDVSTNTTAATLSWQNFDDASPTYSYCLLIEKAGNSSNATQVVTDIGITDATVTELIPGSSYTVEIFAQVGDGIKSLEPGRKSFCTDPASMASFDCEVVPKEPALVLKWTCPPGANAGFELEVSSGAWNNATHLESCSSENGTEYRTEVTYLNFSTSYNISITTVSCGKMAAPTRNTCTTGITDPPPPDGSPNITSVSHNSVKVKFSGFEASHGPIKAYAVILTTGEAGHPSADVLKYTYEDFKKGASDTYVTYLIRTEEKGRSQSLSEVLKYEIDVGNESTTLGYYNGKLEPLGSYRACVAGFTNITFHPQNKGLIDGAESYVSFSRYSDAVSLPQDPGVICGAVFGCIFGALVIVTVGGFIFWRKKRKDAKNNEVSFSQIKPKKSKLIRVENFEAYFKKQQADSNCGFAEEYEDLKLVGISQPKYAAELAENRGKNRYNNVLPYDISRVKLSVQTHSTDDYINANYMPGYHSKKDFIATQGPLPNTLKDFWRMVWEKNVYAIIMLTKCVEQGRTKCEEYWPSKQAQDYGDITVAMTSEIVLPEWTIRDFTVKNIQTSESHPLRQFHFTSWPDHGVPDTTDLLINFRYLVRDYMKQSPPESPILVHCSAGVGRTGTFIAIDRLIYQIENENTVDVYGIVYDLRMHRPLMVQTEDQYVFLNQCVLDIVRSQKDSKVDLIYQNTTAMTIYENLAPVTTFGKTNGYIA
UniProt P41219, whole entry, looked up: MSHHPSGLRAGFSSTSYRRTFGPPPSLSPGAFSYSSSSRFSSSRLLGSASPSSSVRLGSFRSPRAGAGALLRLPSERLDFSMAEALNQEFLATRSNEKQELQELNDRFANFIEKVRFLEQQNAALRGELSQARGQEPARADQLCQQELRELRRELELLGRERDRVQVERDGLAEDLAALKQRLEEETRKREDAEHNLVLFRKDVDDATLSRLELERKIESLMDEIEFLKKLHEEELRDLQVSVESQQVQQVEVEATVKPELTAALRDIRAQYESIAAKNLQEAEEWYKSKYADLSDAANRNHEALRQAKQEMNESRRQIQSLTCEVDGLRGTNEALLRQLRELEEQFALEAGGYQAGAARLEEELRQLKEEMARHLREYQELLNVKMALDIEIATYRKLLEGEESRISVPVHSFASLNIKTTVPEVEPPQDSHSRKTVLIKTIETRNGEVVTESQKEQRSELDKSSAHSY
UniProt Q12974: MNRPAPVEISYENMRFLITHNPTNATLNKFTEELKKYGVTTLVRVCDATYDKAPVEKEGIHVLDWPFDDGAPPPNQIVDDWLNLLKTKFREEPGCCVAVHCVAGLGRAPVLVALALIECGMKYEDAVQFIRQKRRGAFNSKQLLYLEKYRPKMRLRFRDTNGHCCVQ
UniProt Q8WXF1: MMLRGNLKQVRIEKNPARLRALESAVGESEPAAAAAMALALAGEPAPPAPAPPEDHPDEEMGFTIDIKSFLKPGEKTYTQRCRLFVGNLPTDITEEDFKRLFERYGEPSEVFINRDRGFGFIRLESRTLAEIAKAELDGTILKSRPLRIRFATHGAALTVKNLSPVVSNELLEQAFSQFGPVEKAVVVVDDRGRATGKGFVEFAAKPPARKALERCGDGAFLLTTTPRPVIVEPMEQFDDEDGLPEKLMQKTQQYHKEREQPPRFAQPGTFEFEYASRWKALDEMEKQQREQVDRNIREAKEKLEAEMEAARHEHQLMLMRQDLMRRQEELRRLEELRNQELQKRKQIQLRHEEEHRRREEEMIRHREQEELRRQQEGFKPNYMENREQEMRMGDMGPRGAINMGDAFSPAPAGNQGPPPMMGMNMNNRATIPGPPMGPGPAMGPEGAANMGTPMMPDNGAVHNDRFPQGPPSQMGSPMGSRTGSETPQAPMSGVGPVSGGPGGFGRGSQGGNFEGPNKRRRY
UniProt P26599: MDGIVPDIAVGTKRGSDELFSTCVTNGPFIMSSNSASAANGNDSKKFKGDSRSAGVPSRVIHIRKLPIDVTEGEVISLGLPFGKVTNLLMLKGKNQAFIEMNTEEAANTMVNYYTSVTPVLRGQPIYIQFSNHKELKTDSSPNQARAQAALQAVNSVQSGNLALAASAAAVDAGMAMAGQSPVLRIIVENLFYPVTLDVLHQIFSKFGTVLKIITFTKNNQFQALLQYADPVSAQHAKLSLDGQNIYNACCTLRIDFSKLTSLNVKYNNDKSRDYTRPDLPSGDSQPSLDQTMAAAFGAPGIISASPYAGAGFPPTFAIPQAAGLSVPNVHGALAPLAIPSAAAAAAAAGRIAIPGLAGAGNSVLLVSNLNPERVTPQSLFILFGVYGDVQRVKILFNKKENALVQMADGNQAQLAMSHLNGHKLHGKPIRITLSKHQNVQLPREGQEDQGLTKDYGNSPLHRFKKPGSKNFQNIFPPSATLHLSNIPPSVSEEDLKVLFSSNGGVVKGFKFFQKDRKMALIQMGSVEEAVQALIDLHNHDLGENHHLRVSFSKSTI
UniProt Q9Y520: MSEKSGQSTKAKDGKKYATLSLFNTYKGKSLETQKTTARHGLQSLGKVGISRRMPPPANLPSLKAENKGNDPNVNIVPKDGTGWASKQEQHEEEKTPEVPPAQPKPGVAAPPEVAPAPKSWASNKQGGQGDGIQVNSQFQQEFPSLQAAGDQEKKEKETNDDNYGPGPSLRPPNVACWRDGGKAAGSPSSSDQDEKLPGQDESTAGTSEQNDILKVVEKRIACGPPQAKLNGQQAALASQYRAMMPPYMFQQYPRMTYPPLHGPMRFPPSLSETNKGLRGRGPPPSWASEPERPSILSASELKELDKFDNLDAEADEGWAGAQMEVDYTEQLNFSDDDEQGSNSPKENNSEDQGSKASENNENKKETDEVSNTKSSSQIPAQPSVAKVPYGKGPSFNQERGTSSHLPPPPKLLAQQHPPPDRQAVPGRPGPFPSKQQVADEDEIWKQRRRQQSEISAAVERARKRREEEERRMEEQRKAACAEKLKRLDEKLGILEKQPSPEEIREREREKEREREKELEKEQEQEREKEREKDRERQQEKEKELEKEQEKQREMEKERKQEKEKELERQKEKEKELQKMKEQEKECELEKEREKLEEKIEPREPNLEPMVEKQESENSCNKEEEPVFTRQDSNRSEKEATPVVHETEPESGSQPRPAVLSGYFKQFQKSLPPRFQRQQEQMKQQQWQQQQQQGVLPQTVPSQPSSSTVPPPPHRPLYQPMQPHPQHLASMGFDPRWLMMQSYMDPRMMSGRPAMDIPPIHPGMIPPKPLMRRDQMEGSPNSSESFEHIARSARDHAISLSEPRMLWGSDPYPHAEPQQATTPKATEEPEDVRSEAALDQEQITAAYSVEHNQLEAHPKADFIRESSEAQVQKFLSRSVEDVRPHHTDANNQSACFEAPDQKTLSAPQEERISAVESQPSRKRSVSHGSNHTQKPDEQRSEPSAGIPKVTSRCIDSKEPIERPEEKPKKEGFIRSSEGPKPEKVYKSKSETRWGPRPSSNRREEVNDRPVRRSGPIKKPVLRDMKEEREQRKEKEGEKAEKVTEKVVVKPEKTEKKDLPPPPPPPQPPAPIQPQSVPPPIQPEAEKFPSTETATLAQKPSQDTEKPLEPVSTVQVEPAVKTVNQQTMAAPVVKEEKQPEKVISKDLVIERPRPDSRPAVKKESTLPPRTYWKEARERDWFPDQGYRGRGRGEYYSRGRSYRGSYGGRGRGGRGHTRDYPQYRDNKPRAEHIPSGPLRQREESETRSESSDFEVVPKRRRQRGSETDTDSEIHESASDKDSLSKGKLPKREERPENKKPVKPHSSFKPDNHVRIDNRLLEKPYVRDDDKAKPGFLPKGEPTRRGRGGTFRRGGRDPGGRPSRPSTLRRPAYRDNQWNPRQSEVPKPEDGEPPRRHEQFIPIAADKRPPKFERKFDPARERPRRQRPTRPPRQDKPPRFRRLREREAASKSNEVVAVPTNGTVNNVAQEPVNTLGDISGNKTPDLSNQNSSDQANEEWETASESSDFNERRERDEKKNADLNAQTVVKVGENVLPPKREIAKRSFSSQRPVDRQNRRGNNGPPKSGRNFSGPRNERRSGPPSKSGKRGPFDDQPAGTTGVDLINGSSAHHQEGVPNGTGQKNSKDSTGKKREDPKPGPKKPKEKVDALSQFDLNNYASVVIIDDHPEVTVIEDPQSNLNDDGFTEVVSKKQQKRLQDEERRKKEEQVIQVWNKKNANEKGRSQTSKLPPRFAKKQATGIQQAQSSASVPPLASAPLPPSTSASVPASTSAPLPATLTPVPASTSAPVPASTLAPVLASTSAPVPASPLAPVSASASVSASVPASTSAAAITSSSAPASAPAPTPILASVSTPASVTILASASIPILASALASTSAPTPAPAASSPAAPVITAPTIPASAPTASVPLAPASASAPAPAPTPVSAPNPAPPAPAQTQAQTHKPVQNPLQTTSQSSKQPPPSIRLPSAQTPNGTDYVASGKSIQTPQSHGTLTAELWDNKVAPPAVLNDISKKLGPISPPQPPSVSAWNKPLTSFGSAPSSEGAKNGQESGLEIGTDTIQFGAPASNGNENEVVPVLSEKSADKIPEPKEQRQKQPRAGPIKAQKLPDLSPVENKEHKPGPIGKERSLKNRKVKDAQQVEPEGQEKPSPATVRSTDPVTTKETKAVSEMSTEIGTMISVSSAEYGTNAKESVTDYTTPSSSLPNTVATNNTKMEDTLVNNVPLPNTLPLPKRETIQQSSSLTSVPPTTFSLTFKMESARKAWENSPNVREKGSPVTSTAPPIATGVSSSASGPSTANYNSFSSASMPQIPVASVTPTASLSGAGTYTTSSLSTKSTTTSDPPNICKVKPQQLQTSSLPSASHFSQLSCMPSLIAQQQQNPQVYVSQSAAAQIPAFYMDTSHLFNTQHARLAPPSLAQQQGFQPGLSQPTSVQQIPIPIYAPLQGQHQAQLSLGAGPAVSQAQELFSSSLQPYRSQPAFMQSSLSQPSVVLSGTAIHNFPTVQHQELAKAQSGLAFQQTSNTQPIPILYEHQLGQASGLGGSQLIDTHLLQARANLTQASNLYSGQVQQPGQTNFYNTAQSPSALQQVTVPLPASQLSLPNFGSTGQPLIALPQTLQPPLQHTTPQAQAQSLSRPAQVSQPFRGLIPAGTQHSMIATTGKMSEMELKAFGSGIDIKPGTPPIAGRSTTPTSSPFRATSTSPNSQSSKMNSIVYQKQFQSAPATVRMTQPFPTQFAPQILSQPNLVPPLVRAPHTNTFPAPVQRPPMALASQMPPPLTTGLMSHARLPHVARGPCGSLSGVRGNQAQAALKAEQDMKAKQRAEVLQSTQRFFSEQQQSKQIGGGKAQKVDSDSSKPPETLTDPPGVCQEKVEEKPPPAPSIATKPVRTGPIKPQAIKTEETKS
UniProt P11908: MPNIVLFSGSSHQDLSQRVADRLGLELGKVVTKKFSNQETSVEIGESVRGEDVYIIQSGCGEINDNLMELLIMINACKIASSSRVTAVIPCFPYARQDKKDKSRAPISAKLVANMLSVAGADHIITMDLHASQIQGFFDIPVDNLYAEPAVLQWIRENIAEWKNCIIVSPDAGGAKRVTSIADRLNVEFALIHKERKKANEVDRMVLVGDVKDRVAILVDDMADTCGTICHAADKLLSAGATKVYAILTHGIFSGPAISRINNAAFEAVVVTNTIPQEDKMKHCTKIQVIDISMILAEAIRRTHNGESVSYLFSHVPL

How the values were obtained:
Assay in all cases: log2 fold change, soluble protein after heating vs DMSO (PISA); higher = thermal stabilisation; K562 lysate, 10 uM; active = over 0.2 and 3.5 SD of the protein, either way, in both replicates (recomputed)
[1] = compound: C1=CC=C(C=C1)[C@H](COC2=CC3=C(C=C2)NC(=O)N3)NC(=O)C4=CC=CN(C4=O)CC5=CC(=C(C=C5)F)F
Summary of the method: (§1)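 Quantification was by TMTpro 16plex LC-MS/MS with equalised channel sums, applied to the supernatant after 21,000xg for 90 min. Samples were crude K562 extract at 1 mg/mL protein in PBS pH 7.4 with 1 mM MgCl2, treated with 10 μM compound for 30 min, heated for 3 min across 48°C-58°C, pooled and brought to 0.5% NP-40 at 4°C. Values are log-two fold changes in thermal stability relative to solvent controls, from duplicates.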

[2] = compound: CC1=C(SC2=C1C(=N[C@H](C3=NN=C(N32)C)CC(=O)N)C4=CC=C(C=C4)Cl)C
Summary of the method: as §1

[3] = compound: CC1=C2C(=CC=C1)N=C(N(C2=O)C3=CC=CC=C3C)CN4C=NC5=C(N=CN=C54)N
Summary of the method: as §1

[4] = compound: Cc1sc2c(c1C)C(c1ccc(Cl)cc1)=N[C@@H](CC(=O)OC(C)(C)C)c1nnc(C)n1-2
Summary of the method: as §1

[5] = compound: c1ccc([C@@H]2C[C@H]2NC2CCNCC2)cc1
Summary of the method: as §1

Measured: log2 fold change

PUS3 (UniProt Q9BZE2)
inactive: [1] -0.006 | [2] -0.089 | [3] -0.073 | [4] 0.082 | [5] 0.135

PTPRJ (UniProt Q12913)
inactive: [1] -0.04 | [2] 0.083 | [3] 0.141 | [5] 0.058

PTGR2 (UniProt Q8N8N7)
inactive: [1] 0.009 | [2] 0.039 | [3] -0.003 | [4] -0.048 | [5] -0.004

PRPH isoform 2 (UniProt P41219)
inactive: [1] 0.002 | [2] -0.006 | [3] 0.03 | [4] -0.059 | [5] 0.119

PTP4A2 (UniProt Q12974)
inactive: [1] 0.041 | [2] -0.039 | [3] 0.015 | [4] 0.113 | [5] -0.407

PTER (UniProt Q96BW5)
inactive: [1] 0.011 | [2] 0.052 | [3] 0.022 | [4] -0.037 | [5] 0.022

PSPC1 (UniProt Q8WXF1)
inactive: [1] 0.026 | [2] -0.015 | [3] 0.019 | [4] 0.047 | [5] 0.013

PTBP1 (UniProt P26599)
inactive: [1] -0.011 | [2] 0.016 | [3] 0.01 | [4] 0.123 | [5] 0.027

PRRC2C isoform 7 (UniProt Q9Y520)
inactive: [1] 0.006 | [2] -0.001 | [3] 0.005 | [4] -0.006 | [5] -0.042

Two entries picked at random from those above, as already listed:
PSPC1 (UniProt Q8WXF1)
inactive: [1] 0.026 | [2] -0.015 | [3] 0.019 | [4] 0.047 | [5] 0.013

PRRC2C isoform 7 (UniProt Q9Y520)
inactive: [1] 0.006 | [2] -0.001 | [3] 0.005 | [4] -0.006 | [5] -0.042

Following part

PSME4 (UniProt Q14997)
inactive: [1] 0.005 | [2] -0.009 | [3] 0.066 | [4] -0.003 | [5] -0.025

PUF60 (UniProt Q9UHX1)
inactive: [1] -0.017 | [2] 0.006 | [3] 0.004 | [4] 0.028 | [5] 0.059

PRPS2 isoform 2 (UniProt P11908)
inactive: [1] -0.031 | [2] 0.019 | [3] 0.004 | [4] 0.022 | [5] 0.02
